# According to the supplement of paper PMC8728848:
# The other results are listed elsewhere or left out.
# B1: ERGIC1-EDTA (Homo sapiens), Q969X5 (protein)
# chain: MKFLVNVALVFMVVYISYIYAAAHMHHHHHHDYDIPTTENLYFQGSEVVNELYVDDPDKDSGGKIDVSLNISLPNLHCELVGLDIQDEMGRHEVGHIDNSMKIPLNNGAGCRFEGQFSINKVPGNFHVSTHSATAQPQNPDMTHVIHKLSFGDTLQVQNIHGAFNALGGADRLTSNPLASHDYILKIVPTVYEDKSGKQRYSYQYTVANKEYVAYSHTGRIIPAIWFRYDLSPITVKYTE
# Key:
# Test in all cases: glycan array binding signal (z-score within array); higher = stronger binding
# Details in all cases: glycan notation: IUPAC condensed, linker removed
# [1] = target: Fuc(a1-3)[Gal(b1-4)]GlcNAc(b1-3)Gal(b1-3)[Fuc(a1-4)]GlcNAc
# Method in brief: (§1)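 The binding signal is a Z-score computed within each array. Data were drawn from 3228 arrays in the Consortium for Functional Glycomics database, restricted to those with a known protein sequence. Scores were averaged over arrays of the same protein sequence at different concentrations or buffers, and over linkers, and negative values can be taken as non-binding.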
# [2] = target: Fuc(a1-3)[Gal(b1-4)]GlcNAc(b1-3)Gal(b1-4)[Fuc(a1-3)]GlcNAc
# Method in brief: as §1
# [3] = target: Fuc(a1-3)[Gal(b1-4)]GlcNAc(b1-3)Gal(b1-4)[Fuc(a1-3)]GlcNAc(b1-3)Gal(b1-4)[Fuc(a1-3)]GlcNAc
# Method in brief: as §1
# [4] = target: Fuc(a1-3)[Gal(b1-4)]GlcNAc(b1-3)GalNAc
# Method in brief: as §1
# [5] = target: Fuc(a1-3)[Gal(b1-4)]GlcNAc(b1-6)GalNAc
# Method in brief: as §1
# [6] = target: Fuc(a1-3)[Gal(b1-4)]GlcNAc(b1-6)[Gal(b1-3)GlcNAc(b1-3)]Gal(b1-4)Glc
# Method in brief: as §1
# [7] = target: Fuc(a1-3)[Gal(b1-4)]GlcNAc6S
# Method in brief: as §1
# [8] = target: Fuc(a1-3)[Gal3S(b1-4)]Glc
# Method in brief: as §1
# [9] = target: Fuc(a1-3)[Gal3S(b1-4)]GlcNAc
# Method in brief: as §1
# [10] = target: Fuc(a1-3)[Gal3S(b1-4)]GlcNAc6S
# Method in brief: as §1
# [11] = target: Fuc(a1-3)[GalNAc(b1-4)]GlcNAc
# Method in brief: as §1
# [12] = target: Fuc(a1-3)[GalNAc(b1-4)]GlcNAc6S
# Method in brief: as §1
# Fuc(a1-4)GlcNAc = target: Fuc(a1-4)GlcNAc
# Method in brief: as §1
# Fuc(b1-3)GlcNAc = target: Fuc(b1-3)GlcNAc
# Method in brief: as §1
# Gal(a1-2)Gal = target: Gal(a1-2)Gal
# Method in brief: as §1
# Gal(a1-3)Gal = target: Gal(a1-3)Gal
# Method in brief: as §1
# Gal(a1-3)Gal(b1-3)GlcNAc = target: Gal(a1-3)Gal(b1-3)GlcNAc
# Method in brief: as §1
# [13] = target: Gal(a1-3)Gal(b1-3)GlcNAc(b1-2)Man
# Method in brief: as §1
# [14] = target: Gal(a1-3)Gal(b1-3)GlcNAc(b1-2)Man(a1-3)[Gal(a1-3)Gal(b1-3)GlcNAc(b1-2)Man(a1-6)]Man(b1-4)GlcNAc(b1-4)GlcNAc
# Method in brief: as §1
# [15] = target: Gal(a1-3)Gal(b1-3)GlcNAc(b1-3)GalNAc
# Method in brief: as §1
# [16] = target: Gal(a1-3)Gal(b1-3)GlcNAc(b1-6)GalNAc
# Method in brief: as §1
# [17] = target: Gal(a1-3)Gal(b1-3)[Fuc(a1-4)]GlcNAc(b1-2)Man(a1-3)[Gal(a1-3)Gal(b1-3)[Fuc(a1-4)]GlcNAc(b1-2)Man(a1-6)]Man(b1-4)GlcNAc(b1-4)GlcNAc
# Method in brief: as §1
# Gal(a1-3)Gal(b1-4)Glc = target: Gal(a1-3)Gal(b1-4)Glc
# Method in brief: as §1
# Gal(a1-3)Gal(b1-4)GlcNAc = target: Gal(a1-3)Gal(b1-4)GlcNAc
# Method in brief: as §1
# [18] = target: Gal(a1-3)Gal(b1-4)GlcNAc(b1-2)Man
# Method in brief: as §1
# [19] = target: Gal(a1-3)Gal(b1-4)GlcNAc(b1-2)Man(a1-3)[Gal(a1-3)Gal(b1-4)GlcNAc(b1-2)Man(a1-6)]Man(b1-4)GlcNAc(b1-4)GlcNAc
# Method in brief: as §1
# [20] = target: Gal(a1-3)Gal(b1-4)GlcNAc(b1-3)GalNAc
# Method in brief: as §1
# [21] = target: Gal(a1-3)Gal(b1-4)GlcNAc(b1-6)GalNAc
# Method in brief: as §1
# [22] = target: Gal(a1-3)Gal(b1-4)[Fuc(a1-3)]GlcNAc
# Method in brief: as §1
# [23] = target: Gal(a1-3)Gal(b1-4)[Fuc(a1-3)]GlcNAc(b1-2)Man(a1-3)[Gal(a1-3)Gal(b1-4)[Fuc(a1-3)]GlcNAc(b1-2)Man(a1-6)]Man(b1-4)GlcNAc(b1-4)GlcNAc
# Method in brief: as §1
# Gal(a1-3)GalNAc = target: Gal(a1-3)GalNAc
# Method in brief: as §1
# [24] = target: Gal(a1-3)[Gal(a1-4)]Gal(b1-4)GlcNAc
# Method in brief: as §1
# [25] = target: Gal(a1-4)Gal(b1-3)GlcNAc(b1-2)Man(a1-3)[Gal(a1-4)Gal(b1-3)GlcNAc(b1-2)Man(a1-6)]Man(b1-4)GlcNAc(b1-4)GlcNAc
# Method in brief: as §1
# Gal(a1-4)Gal(b1-4)Glc = target: Gal(a1-4)Gal(b1-4)Glc
# Method in brief: as §1
# Gal(a1-4)Gal(b1-4)GlcNAc = target: Gal(a1-4)Gal(b1-4)GlcNAc
# Method in brief: as §1
# [26] = target: Gal(a1-4)Gal(b1-4)GlcNAc(b1-2)Man(a1-3)[Gal(a1-4)Gal(b1-4)GlcNAc(b1-2)Man(a1-6)]Man(b1-4)GlcNAc(b1-4)GlcNAc
# Method in brief: as §1
# [27] = target: Gal(a1-4)Gal(b1-4)GlcNAc(b1-3)Gal(b1-4)Glc
# Method in brief: as §1
# Gal(a1-4)GlcNAc = target: Gal(a1-4)GlcNAc
# Method in brief: as §1
binder,measurement,setting,value
B1,glycan array binding signal (z-score),[1],-0.682
same,glycan array binding signal (z-score),[2],-0.231
same,glycan array binding signal (z-score),[3],-1.38
same,glycan array binding signal (z-score),[4],-0.501
same,glycan array binding signal (z-score),[5],0.232
same,glycan array binding signal (z-score),[6],0.292
same,glycan array binding signal (z-score),[7],0.783
same,glycan array binding signal (z-score),[8],0.164
same,glycan array binding signal (z-score),[9],0.249
same,glycan array binding signal (z-score),[10],0.531
same,glycan array binding signal (z-score),[11],0.462
same,glycan array binding signal (z-score),[12],-0.543
same,glycan array binding signal (z-score),Fuc(a1-4)GlcNAc,-1.01
same,glycan array binding signal (z-score),Fuc(b1-3)GlcNAc,-0.246
same,glycan array binding signal (z-score),Gal(a1-2)Gal,-0.451
same,glycan array binding signal (z-score),Gal(a1-3)Gal,0.304
same,glycan array binding signal (z-score),Gal(a1-3)Gal(b1-3)GlcNAc,0.254
same,glycan array binding signal (z-score),[13],0.154
same,glycan array binding signal (z-score),[14],0.468
same,glycan array binding signal (z-score),[15],0.82
same,glycan array binding signal (z-score),[16],0.056
same,glycan array binding signal (z-score),[17],1.66
same,glycan array binding signal (z-score),Gal(a1-3)Gal(b1-4)Glc,-0.165
same,glycan array binding signal (z-score),Gal(a1-3)Gal(b1-4)GlcNAc,-0.505
same,glycan array binding signal (z-score),[18],-1.12
same,glycan array binding signal (z-score),[19],0.437
same,glycan array binding signal (z-score),[20],-0.034
same,glycan array binding signal (z-score),[21],0.183
same,glycan array binding signal (z-score),[22],-0.92
same,glycan array binding signal (z-score),[23],1.74
same,glycan array binding signal (z-score),Gal(a1-3)GalNAc,-0.361
same,glycan array binding signal (z-score),[24],-0.325
same,glycan array binding signal (z-score),[25],0.579
same,glycan array binding signal (z-score),Gal(a1-4)Gal(b1-4)Glc,-0.549
same,glycan array binding signal (z-score),Gal(a1-4)Gal(b1-4)GlcNAc,-0.322
same,glycan array binding signal (z-score),[26],0.145
same,glycan array binding signal (z-score),[27],0.927
same,glycan array binding signal (z-score),Gal(a1-4)GlcNAc,-0.828

# Looked up one by one from the entries so far:
binder,measurement,setting,value
B1,glycan array binding signal (z-score),[22],-0.92
same,glycan array binding signal (z-score),Gal(a1-4)GlcNAc,-0.828
